Measured values taken from publication PMC11145794.
Results are given in words; binding and its absence hold for the method and conditions named. In cells and extracts the contact can be indirect. A yes stands for co-enrichment or nearness to the bait. Other partners may have been found. For some assays here: A no says only that the protein was not detected with the bait. Where a sequence is shown, tags or fusion partners need not be part of it.

Experiments:
[1] = target: T1, TvTim22 with C-terminal di-HA tag (TvTim22-HA) (Trichomonas vaginalis) (UniProt A2DDM1); assay: affinity purification with mass spectrometry; native coIP of TvTim22-HA from isolated hydrogenosomes, crosslinker omitted; anti-HA Dynabeads; LFQ-MS against the parent strain
T1 sequence: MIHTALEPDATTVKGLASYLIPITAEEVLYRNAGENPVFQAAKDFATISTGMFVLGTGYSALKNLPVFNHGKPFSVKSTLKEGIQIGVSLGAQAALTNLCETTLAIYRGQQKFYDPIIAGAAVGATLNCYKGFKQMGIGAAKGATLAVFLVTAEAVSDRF

[2] = target: T1, TvTim22 with C-terminal di-HA tag (TvTim22-HA) (Trichomonas vaginalis); assay: affinity purification with mass spectrometry; isolated hydrogenosomes from strains expressing an HA-tagged TvTim17 family bait, crosslinked with 1 mM DSP (30 min, 25 °C), lysed in TSG buffer pH 7.2 with 1% digitonin or 1% Triton X-100; anti-HA Dynabeads; LFQ-MS against the non-transformed parent strain (FDR 0.05, S=1)
[3] = target: T2, TvTim23 with C-terminal di-HA tag (Trichomonas vaginalis) (UniProt A2E7V5); assay: as above
T2 sequence: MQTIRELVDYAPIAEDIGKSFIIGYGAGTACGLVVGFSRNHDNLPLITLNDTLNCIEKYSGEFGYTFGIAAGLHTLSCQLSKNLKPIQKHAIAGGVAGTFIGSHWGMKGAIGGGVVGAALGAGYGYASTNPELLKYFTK

[4] = target: T3, TvTim17-like with C-terminal di-HA tag (Trichomonas vaginalis) (UniProt A2DS29); assay: as above
T3 sequence: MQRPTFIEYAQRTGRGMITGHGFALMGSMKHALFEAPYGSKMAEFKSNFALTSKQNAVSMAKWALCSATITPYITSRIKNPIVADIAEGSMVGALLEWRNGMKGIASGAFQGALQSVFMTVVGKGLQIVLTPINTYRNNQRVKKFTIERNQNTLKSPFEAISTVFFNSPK

[5] = target: T1, TvTim22 with C-terminal di-HA tag (TvTim22-HA) (Trichomonas vaginalis); assay: affinity purification with mass spectrometry; TvTim22-HA complex from hydrogenosomes lysed with 1% digitonin or 1% Triton X-100, no crosslinker, anti-HA Dynabeads, eluted with HA peptide, Superose 6 size exclusion (132 kDa peak), SDS-PAGE, gel bands identified by MS
[6] = target: T4, TvTim23-like with C-terminal di-HA tag (Trichomonas vaginalis) (UniProt A2DXD3); assay: affinity purification with mass spectrometry; isolated hydrogenosomes from strains expressing an HA-tagged TvTim17 family bait, crosslinked with 1 mM DSP (30 min, 25 °C), lysed in TSG buffer pH 7.2 with 1% digitonin or 1% Triton X-100; anti-HA Dynabeads; LFQ-MS against the non-transformed parent strain (FDR 0.05, S=1)
T4 sequence: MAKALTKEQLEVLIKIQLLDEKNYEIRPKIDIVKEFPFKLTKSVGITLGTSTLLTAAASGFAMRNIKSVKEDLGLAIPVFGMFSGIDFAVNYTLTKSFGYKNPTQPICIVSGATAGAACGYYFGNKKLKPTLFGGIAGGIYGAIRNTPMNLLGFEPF

[7] = target: T5, TvTim22-like with C-terminal di-HA tag (Trichomonas vaginalis) (UniProt A2FHN8); assay: as above
T5 sequence: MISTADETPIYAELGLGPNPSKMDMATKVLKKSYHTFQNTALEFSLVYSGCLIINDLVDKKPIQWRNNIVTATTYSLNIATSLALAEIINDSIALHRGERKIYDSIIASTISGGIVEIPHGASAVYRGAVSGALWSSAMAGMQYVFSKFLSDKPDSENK

Pam18 was tested, and the binding [1] was “binds”, the binding [2] was “binds” and the binding [3] was “binds”.

Tim9-10B was tested, and the binding [4] was “no binding”.

“hydrogenosomal processing peptidase (HPP), α subunit” was tested, and the binding [1] was “binds” and the binding [2] was “binds”.

Tim9-10A was tested, and the binding [4] was “no binding”.

Hsp70-1 was tested, and the binding [1] was “binds”, the binding [5] was “binds” and the binding [2] was “binds”. The binding [3] was “binds”.

“hydrogenosomal processing peptidase (HPP), β subunit” was tested, and the binding [1] was “binds” and the binding [2] was “binds”.

Tim9-10C was tested, and the binding [4] was “no binding”.

Tim9-10D was tested, and the binding [4] was “no binding”.

Pam16 was tested, and the binding [1] was “binds”, the binding [2] was “binds” and the binding [6] was “binds”.

B1: TvTim17-like with C-terminal di-HA tag (protein, UniProt A2DS29 1-170)
chain: T3 sequence
With B1 the binding [1] was “binds”, the binding [5] was “binds” and the binding [2] was “binds”. The binding [7] was “binds”, the binding [3] was “binds” and the binding [6] was “binds”.

B2: TvTim23-like with C-terminal di-HA tag (protein, UniProt A2DXD3 1-157)
chain: T4 sequence
With B2 the binding [1] was “binds”, the binding [2] was “binds” and the binding [3] was “binds”.

B3: TvTim22 with C-terminal di-HA tag (TvTim22-HA) (protein, UniProt A2DDM1 1-160)
chain: T1 sequence
For B3, the binding [6] was “binds”.

B4: TvTim23 with C-terminal di-HA tag (protein, UniProt A2E7V5 1-139)
chain: T2 sequence
B4 was tested, and the binding [6] was “binds”.

B5: AAC1 (endogenous) (protein, UniProt A0A8U0WPE5 1-316)
chain: MAQPAEQILIATSPKPSLSPVERLSVGFIAGTLSRTLTSPLDVVKMLMQVSSRGGSAKDTIAQLWKEQGIAGFWRGNWAACIRLGPQSAIKFYAYEELEKRIGKGKPLVGIQRTVFGSLSGVISQVLTYPLDVIRTRITVYSGKYTGIFNCAFTMLKEEGFTSLFAGIVPTVMGVIPYEGAQFYAYGGLKQLYTTKIAPGKPISPWANCLIGAAAGMFSQTFSYPFDVIRKRMMLKDEKGKPIYSGMMQAFSTVYAKEGVAGLYRGVGLNLIKVVPFAALQFTILEETRRAFFKVRAAIDQKKVEEIKGKVAPKKK
In the case of B5, the binding [1] is reported as “binds” and the binding [2] is reported as “binds”.

B6: Tim44 (endogenous) (protein, UniProt A2F7V1 1-326)
chain: MISTLSQHGGFSGVRYASVFTNFMDNIGRNLSENQEVTTWMNGLKNDPLVKLTAGVVEEAAFYGKTALNAGTAITKVAVWPITYPLSFIIKKNPYTLVPCPFPAAQVSFEVESKGDLVLRKQNLIEKFIYKLKNVKNAASVSKNAFIRVPFQALANASSVVVSKLTQPSKEQLVQMSIQMYYPTFTISEFKQWIEKSFLPVLLERYLRGNIKQLEELTSQQVAKERQLAVVQFLSNRLIIRTKLLSITDVDIMGFDFTNRMPSILVRCSADHTNEVITMNSGTIVEGGPQDICHTDFLVVLTIDASKDTPRWIASELRPDSTSNRI
In the case of B6, the binding [1] is reported as “binds”, the binding [5] is reported as “binds” and the binding [2] is reported as “binds”. The binding [3] was “binds”.
